At least one structure is not confirmed: it was looked up by name or label, or the drawing left a doubt.
System: prostate cancer cell lines (C-42, DU-145, and PC-3 cells)
Assay: MTT assay, antiproliferative efficacy, results stated for all three cell lines together
Assay type: cell-based
Conditions: 72 hours; non-encapsulated, alone; RSV 20, 30, 40 µM; CL 0.250, 0.375, 0.5 µM
Description: Finally, in vitro cytotoxicity studies were performed in order to evaluate whether co-administration of encapsulated RSV and CL would have allowed an increase in the antiproliferative efficacy compared to single molecules, both as such and formulated in nanosystems, on androgen-dependent (C-42 cells) and androgen-independent (DU-145 and PC-3 cells) prostate cancer cell lines (PCa).
The antiproliferative efficacy of the NPs of the present invention was evaluated using the MTT assay (3-[4,5-dimethylthiazol-2-yl]-2,5-diphenyl tetrazolium bromide) applying the procedure described in Sanna V., et al., Resveratrol-loaded nanoparticles based on poly(epsilon-caprolactone) and poly(D,L-lactic-co-glycolic acid)-poly(ethylene glycol) blend for prostate cancer treatment. Mol. Pharm. 2013 Oct 7;10(10):3871-81, which, as a result, is included herein as a reference in its entirety.
Each experiment was repeated 3 or 5 times (n = 3 or 5).

CC1=C(O)C(=O)C=C2C1=CC=C1[C@@]2(C)CC[C@@]2(C)[C@@H]3C[C@](C)(C(=O)O)CC[C@]3(C)CC[C@]12C [CL, Celastrol]
viability: reduction of viability that is generally dose-dependent

— patent EP3565534B1, “POLYMERIC NANOPARTICLES ENCAPSULATING A COMBINATION OF NATURAL BIO-ACTIVES TRANS-RESVERATROL(RSV) AND CELASTROL(CL), A PROCESS FOR THE PREPARATION AND USE THEREOF IN THE TREATMENT OF PROSTATE CANCER” (Università degli Studi di Sassari, priority 2017, dated 2018)
